In patent publication US20160053022A1 (PETER MACCALLUM CANCER INSTITUTE, published 2016):
These are yes or no findings as the source states them, for the method shown. Binding seen in cells or lysates may run through a third protein. Some results given as binding are weak or reduced against the parent protein; the word gives no strength. For part of these data: Where a sequence is shown, tags or fusion partners need not be part of it.

Sequences of proteins named here, by UniProt entry; tags and fusion partners are left off. Residues count along the entry.
UniProt P27467, residues 19-352: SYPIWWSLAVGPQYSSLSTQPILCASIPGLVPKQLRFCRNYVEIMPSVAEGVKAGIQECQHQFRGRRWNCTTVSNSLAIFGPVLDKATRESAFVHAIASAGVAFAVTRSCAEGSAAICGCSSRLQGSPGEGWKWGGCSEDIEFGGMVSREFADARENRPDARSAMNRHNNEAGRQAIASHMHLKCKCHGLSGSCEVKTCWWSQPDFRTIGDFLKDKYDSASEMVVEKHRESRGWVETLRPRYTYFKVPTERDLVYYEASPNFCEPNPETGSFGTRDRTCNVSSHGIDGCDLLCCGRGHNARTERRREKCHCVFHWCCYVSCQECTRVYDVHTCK
UniProt P34925, residues 66-194: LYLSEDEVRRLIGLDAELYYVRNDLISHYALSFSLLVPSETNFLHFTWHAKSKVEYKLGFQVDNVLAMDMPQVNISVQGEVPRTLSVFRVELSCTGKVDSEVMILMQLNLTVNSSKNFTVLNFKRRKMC

What was measured:
[1] = target: Wnt3a.Myc5 (mouse) (UniProt P27467); test: co-immunoprecipitation: anti-FLAG IP of 1 µg hRYKWD.Fc with 200 µg lysate of transfected HEK293T cells, immunoblot anti-Myc
[2] = target: T1, Wnt5a.Myc5 (mouse) (UniProt P22725); test: as above
T1 sequence (looked up): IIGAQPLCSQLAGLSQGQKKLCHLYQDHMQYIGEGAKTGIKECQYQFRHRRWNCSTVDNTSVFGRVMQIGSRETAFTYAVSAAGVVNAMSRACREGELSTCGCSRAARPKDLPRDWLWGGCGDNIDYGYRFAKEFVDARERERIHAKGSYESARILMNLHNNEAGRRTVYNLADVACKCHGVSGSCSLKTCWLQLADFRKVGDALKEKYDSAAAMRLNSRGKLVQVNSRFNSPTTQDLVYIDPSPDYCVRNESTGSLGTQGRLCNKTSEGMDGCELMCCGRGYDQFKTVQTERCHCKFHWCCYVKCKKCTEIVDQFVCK

[3] = target: T2, Wnt1.Myc5 (mouse) (UniProt P04426); test: as above
T2 sequence (looked up): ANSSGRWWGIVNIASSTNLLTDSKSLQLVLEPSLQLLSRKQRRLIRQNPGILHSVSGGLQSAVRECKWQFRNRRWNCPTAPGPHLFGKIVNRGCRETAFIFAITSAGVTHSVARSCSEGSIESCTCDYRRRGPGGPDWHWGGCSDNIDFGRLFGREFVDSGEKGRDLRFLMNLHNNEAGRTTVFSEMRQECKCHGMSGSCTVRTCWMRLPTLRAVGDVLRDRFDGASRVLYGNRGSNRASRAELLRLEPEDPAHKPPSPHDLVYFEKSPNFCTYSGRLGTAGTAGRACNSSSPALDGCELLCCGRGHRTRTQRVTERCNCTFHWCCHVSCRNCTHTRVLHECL

[4] = target: Wnt3a.Myc5 (mouse) (UniProt P27467); test: co-immunoprecipitation, anti-FLAG pull-down of 1 µg hRYKWD.Fc from lysate of Wnt-transfected HEK293T cells, anti-Myc blot
[5] = target: T1, Wnt5a.Myc5 (mouse); test: as above
[6] = target: T2, Wnt1.Myc5 (mouse); test: as above

Measured: binding

hRYKWD.Fc (from UniProt P34925 66-194) (Fc fusion)
binds: all assays above
